The values below come from PubChem BioAssay AID2685 (National Center for Advancing Translational Sciences (NCATS), 2010).

The nature of this assay: qHTS Assay for Lipid Storage Modulators in Drosophila S3 Cells.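 As to cell number change: cells counted by Cell Tracker Red CMTPX staining in the red channel.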 The note with it: BODIPY lipid droplet fluorescence, 18-24 h; for cell number change: measured here: cell count max response, cells fed with added oleic acid. In short, it runs like this: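 Drosophila S3 cells loaded with oleic acid (400 uM, as added) and compounds at several concentrations; lipid droplets imaged by 488-nm laser-scanning cytometry, 500–530 nm intensity and object ratio to cell channel. Percent activity normalized to 20 uM Triacsin C.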

[1] abbreviates: measured here: cell number channel AC50, cells fed with added oleic acid.
Where [2] appears, read: measured here: lipid fluorescence (Fed channel) AC50, cells fed with added oleic acid.

SMILES strings stand for the structures. The list shows a part of the results. Further columns of the screen follow, without active or inactive calls. Most of these compounds were active or inconclusive in the main read-out, so they are no random draw. Words in brackets tell the shape of the fitted curve; partial curves, single points and poor fits give uncertain potencies.

For `CC[C@@H](C(=O)[C@@H](C)[C@@H](O)[C@H](C)CCc1ccc(C)c(O)c1C(=O)O)[C@H]1O[C@](CC)([C@H]2CC[C@](O)(CC)[C@H](C)O2)C[C@@H]1C`, the cell number change was -34.1%. Besides, the AC50 under setting [1] was 1.64 µM [falling, partial curve]. Further, the AC50 under setting [2] was 3.26 µM [falling, partial curve, poor fit]. With `CC(C)CCn1c2ccccc2c2cc(CC(N)=O)ccc21`, the cell number change was -4.61%. For the same compound, under setting [2], the AC50 was 13 µM [falling, partial curve, poor fit]. On to `COc1ccc(N(CC(=O)N2CCCCCC2)S(=O)(=O)c2ccc(OC)c(OC)c2)cc1`, for which the cell number change is 17.5%. For `O=C(Nc1ccc(F)cc1)c1ccc(Br)c(S(=O)(=O)N2CCOCC2)c1`, the cell number change is -12.4%. As for `COCCNS(=O)(=O)c1cc(OC)ccc1OC`, the cell number change worked out at 33.4%. Consider `CC1(C)CC(=O)C=C(Nc2ccccc2NC(=O)c2cnccn2)C1`, for which the AC50 under setting [2] is 0.82 µM [falling, single point]. Turning to `O=C(Nc1cn(-c2ccccc2)nc1-c1cccs1)c1ccco1`, the cell number change is -19.2%. Also, the AC50 under setting [2] is 0.461 µM [rising, full curve, poor fit].

In the case of `O=c1[nH]c2ccc(S(=O)(=O)N3CCCCC3)cc2s1`, the cell number change was found to be 11.8%. Moreover, the AC50 under setting [2] is 29.1 µM [rising, single point].

Consider `COc1cc(NC(=O)c2ccccc2F)c(OC)cc1NC(=O)CN1CCOCC1`, for which the cell number change is -31.5%. For the same compound, the concentration at half-maximal activity (AC50) under setting [1] was 29.1 µM [falling, single point]. In addition, the AC50 under setting [2] is 29.1 µM [falling, single point].

`CCOc1cccc(C2C(C#N)=C(N)Oc3cc(C)[nH]c(=O)c32)c1OCC` (stereo unspecified): the cell number change was determined as 10.2%. Further, under setting [1], the AC50 is 6.51 µM [rising, single point]. On to `COC(=O)[C@@H](NC(=O)CCc1nnc(-c2ccsc2)o1)C(C)C`, for which the cell number change is -9.93%. Further, under setting [2], the AC50 is 7.31 µM [falling, partial curve]. For `C/C(=N\Nc1nc2ccccc2s1)c1ccc2c(c1)OCO2`, the AC50 by setting is: under setting [1], 0.58 µM [falling, single point]; under setting [2], 3.26 µM [rising, partial curve, poor fit]. `CC(=O)N1CCN(C(=S)c2ccc(-c3ccc(Cl)cc3)o2)CC1`: the cell number change was -39.4%. For the same compound, the AC50 under setting [1] was 9.2 µM [falling, partial curve, poor fit]. Further, under setting [2], the AC50 is 11.6 µM [falling, partial curve]. `CN1CCN(C(=O)CCc2ncc(C(F)(F)F)cc2Cl)CC1`: the cell number change is -38.5%. Further, the AC50 under setting [1] is 16.4 µM [falling, single point].

For `COc1cccc(CN(C)C(=O)C2CCC(=O)N(Cc3cccc(F)c3)C2)c1` (stereo unspecified), the cell number change is -9.38%.

In the case of `CN1/C(=C\C(=O)CSc2nnc(N)s2)C(C)(C)c2ccccc21`, the cell number change was -9.61%. Also, under setting [1], the AC50 is 6.51 µM [rising, single point]. Moreover, the AC50 under setting [2] was 6.51 µM [rising, partial curve]. Take `Cc1ccccc1-n1nc2c(c1NC(=O)c1ccc(S(=O)(=O)N(C)C)cc1)CSC2`: the cell number change is -12%. Moreover, the AC50 under setting [1] was 0.58 µM [falling, single point]. In the case of `CCOc1ccc(S(=O)(=O)NCC(c2ccc3c(c2)OCO3)N2CCN(C)CC2)cc1` (stereo unspecified), the cell number change is -19.2%. Also, the AC50 under setting [2] is 0.58 µM [falling, full curve]. As for `CNC(=O)c1cc(S(=O)(=O)N(C)C)ccc1Cl`, the cell number change was -16.6%. The AC50 under setting [1] is 6.51 µM [falling, single point]. Also, the AC50 under setting [2] is 3.66 µM [falling, full curve].

`CCOC(=O)c1[nH]c(C)c(C(=O)Nc2ccc3c(c2)CCC3)c1C`: the cell number change was -17%. For the same compound, the AC50 under setting [2] is 3.26 µM [rising, partial curve].

Take `Cc1cccc(NC(=O)c2cccc(C(=O)Nc3cccc(C)n3)c2)n1`: the cell number change turned out to be 27.5%.

`COCCCNC(=O)C1CC(=O)N(CCc2ccccc2)C1` (stereo unspecified): the cell number change is -2.81%. Take `Oc1csc(Cc2nc(-c3ccc(-c4ccccc4)cc3)cs2)n1`: the cell number change was -24.2%. Under setting [1], the AC50 was 4.11 µM [rising, single point]. On to `COc1ccc(-n2nc3c(N4CCC(C(=O)NCCc5ccco5)CC4)nnc(C)c3c2C)cc1`, for which the cell number change is 21.4%. Further, the AC50 under setting [2] was 6.51 µM [rising, single point].

As to `CC1CCC2(CC1)NC(=O)N(CC(=O)N1CCN(c3ccccc3)CC1)C2=O` (stereo unspecified), the cell number change is -26.2%. Also, the AC50 under setting [2] is 29.1 µM [rising, single point]. In the case of `CCNc1nnc(SCC(=O)c2cc(C)n(C3CC3)c2C)s1`, the cell number change is 79.8%. Also, the AC50 under setting [1] is 5.17 µM [falling, single point]. Regarding `Cc1ccc(CCNC(=O)CCn2c(=O)c3cccn3c3ccc(F)cc32)cc1`, the cell number change was determined as 11.3%. For the same compound, the AC50 under setting [2] is 0.58 µM [falling, full curve]. In the case of `O=C1CCC/C(=N/NC(=O)c2cc(NS(=O)(=O)c3cccs3)cc(NS(=O)(=O)c3cccs3)c2)C1`, the cell number change was -16.3%.

For the compound `Fc1cccc(F)c1-c1nc(-c2ccncc2)no1`, the cell number change was -18.1%. The AC50 under setting [2] is 6.51 µM [falling, single point]. On to `COc1cccc(N(C(C)=O)c2nc(C)cc(C)c2C#N)c1`, for which the AC50 under setting [1] is 5.17 µM [rising, single point].

On to `Cc1cccn2c(=O)nc(SCC(=O)Nc3ccc4c(c3)OCO4)nc12`, for which the cell number change worked out at 9%.

Consider `COc1ccc(NC(=O)c2cccc3ccccc23)cc1`, for which the cell number change is 20%. Further, the AC50 under setting [2] is 29.1 µM [rising, single point]. As for `Cc1ccc(C(=O)c2ccccc2C(=O)O)c(O)c1`, the cell number change came to 43.3%. Moreover, under setting [1], the concentration at half-maximal activity (AC50) was 6.51 µM [rising, single point]. Further, the AC50 under setting [2] is 6.51 µM [rising, single point]. As for `Cc1cc(=O)[nH]c(SCc2cccc3cccnc23)n1`, the cell number change was -5.28%. Moreover, the AC50 under setting [1] was 0.259 µM [falling, full curve]. Moreover, under setting [2], the half-maximal activity concentration (AC50) was 0.103 µM [falling, full curve, poor fit]. Consider `COc1ccc(CCN(C)C(=O)c2oc3ccccc3c2C)cc1OC`, for which the cell number change turned out to be 50.2%. Also, the AC50 under setting [1] was 13 µM [rising, partial curve]. `Oc1ccc(/C=N/NC(=S)Nc2cccnc2)cc1O`: the cell number change was -3.92%. The AC50 under setting [2] is 32.6 µM [falling, single point]. `O=[N+]([O-])c1ccccc1/C=N/NC1=NS(=O)(=O)c2ccccc21`: the cell number change is 20.7%. For the same compound, under setting [2], the AC50 was 32.6 µM [rising, single point]. For `O=C1CN(c2ccc(Cl)cc2)C2(CCCCC2)S1`, the cell number change worked out at 5.52%. Under setting [2], the AC50 was 11.6 µM [rising, partial curve]. With `CCOC(=O)CNC(=O)CN1CCCN(S(=O)(=O)c2ccc(Br)s2)CC1`, the cell number change stood at 23.9%. Regarding `CS(=O)(=O)N1CCN(c2ccc(C(=O)NC34CC5CC(CC(C5)C3)C4)cc2[N+](=O)[O-])CC1`, the cell number change was found to be 23.1%. Further, under setting [2], the AC50 is 9.2 µM [falling, partial curve, poor fit]. Regarding `C=CCNc1nc(-c2cccs2)c(CC(=O)O)s1`, the cell number change was 22.1%. The AC50 under setting [2] is 6.51 µM [rising, full curve]. For `O=C(O)CN(Cc1ccccc1)S(=O)(=O)c1ccc2c(c1)OCCO2`, the cell number change is -5.66%. The concentration at half-maximal activity (AC50) under setting [2] was 0.0651 µM [falling, full curve, poor fit]. In the case of `CC1(C)SCC2C(=O)N3C(CSC3(C)C)C(=O)N21` (stereo unspecified), the cell number change was found to be 14.7%. Moreover, the AC50 under setting [2] was 3.66 µM [rising, single point].

On to `Nc1nc(N2CCCCC2)nc(N2CCCCC2)n1`, for which the cell number change was 14.7%. For `COCCN(C(=O)COC(=O)c1ccc(C)s1)c1c(N)n(Cc2ccccc2)c(=O)[nH]c1=O`, the cell number change worked out at 82.8%. In addition, the AC50 under setting [1] is 16.4 µM [rising, single point]. Turning to `COc1ccc2nc(N3CCCC3)[nH]c2c1`, the cell number change is -0.491%. In the case of `COc1ccc(Cc2[nH]n3c(=O)c(Cl)c(C)nc3c2-c2ccccc2)cc1`, the cell number change is -20.7%. Further, under setting [1], the AC50 is 0.731 µM [rising, single point]. The AC50 under setting [2] is 29.1 µM [falling, single point].

For `Cc1cc(C)cc(NC(=S)N2CCN(S(=O)(=O)c3ccccc3)CC2)c1`, the cell number change came out at 3.47%. With `Cc1ccc(S(=O)(=O)NCc2cccnc2)cc1C(=O)N1CCCC1`, the cell number change is -10.5%.

As for `COc1ccc(-c2csc(NC(=O)CSCC(=O)Nc3cc(C)on3)n2)cc1`, the cell number change came out at 11.5%. Moreover, under setting [2], the AC50 is 10.3 µM [falling, partial curve, poor fit].

`Cc1cc(C)c(N=C2C(=O)Nc3ccccc32)c(C)c1`: the cell number change is -34%. For the same compound, the AC50 under setting [1] is 29.1 µM [falling, single point]. Moreover, the concentration at half-maximal activity (AC50) under setting [2] was 16.4 µM [falling, single point]. As for `C=CCn1c(SCC(=O)c2[nH]c(C)c(C(=O)OCC)c2C)nc2scc(-c3ccccc3)c2c1=O`, the cell number change was 17%. Turning to `COc1cccc(CNC(=O)CCS(=O)(=O)c2cc3c(cc2C)NC(=O)CO3)c1`, the cell number change was found to be 13.3%. The AC50 under setting [2] is 0.00517 µM [rising, full curve, poor fit]. For the compound `CC(=O)C1=C(C)Nc2ncnn2C1c1cccc(O)c1` (stereo unspecified), the cell number change worked out at 27.8%. The AC50 under setting [2] is 0.58 µM [rising, single point].

Consider `CCOC(=O)C(=Cc1ccc(OCc2ccc([N+](=O)[O-])cc2)c(OC)c1)C(=O)OCC`, for which the AC50 was 2.59 µM [rising, partial curve, poor fit] under setting [1] and 2.06 µM [rising, partial curve] under setting [2]. `O=CC(=O)c1ccccc1`: the cell number change came out at 4.72%. The AC50 under setting [1] was 1.16 µM [falling, single point]. As to `O=C(Nc1cc2c3c(c1)CC(=O)N3CCC2)c1ccc(Br)o1`, the AC50 under setting [1] is 1.16 µM [rising, full curve]. Regarding `COc1ccc(N2CCN(CCOc3ccc4c(C)cc(=O)oc4c3)CC2)cc1`, the cell number change came to 44.3%. Moreover, the AC50 under setting [1] is 13 µM [rising, partial curve, poor fit]. For the same compound, the AC50 under setting [2] is 20.6 µM [rising, partial curve]. As to `CCOCCCN(CCC#N)C(=O)C1CCN(S(=O)(=O)c2ccc(-n3cnnn3)cc2)CC1`, the cell number change was 8.11%. For the same compound, the AC50 under setting [2] is 29.1 µM [rising, single point].

Turning to `C#CCOc1coc(COC(=O)c2ccccc2)cc1=O`, the cell number change was -11.8%. Also, under setting [2], the AC50 is 6.51 µM [falling, single point].

Regarding `Cc1ccc2c(c1)C1CN(C)CCC1N2C(=O)c1cccc(S(=O)(=O)N(C)C)c1` (stereo unspecified), the cell number change is -79.2%. Take `COc1cc2c3nc4n(c(=O)c3n(CC(=O)NCC3CCCO3)c2cc1OC)CCS4` (stereo unspecified): the cell number change stood at 17.6%. Further, under setting [2], the AC50 was 6.51 µM [rising, single point].

For orientation: AC50 means the concentration at which the activity in the assay is half-maximal. Low values mean greater potency, high ones weaker potency.
